From US12692288B2, “Crystalline and liquid crystalline 25-hydroxy-cholest-5-en-3-sulfate sodium and methods for preparing same” (Medicis Pharmaceutical Corporation, priority 2019, dated 2026)
Some entries share one result that the patent states for a list of compounds. At least one compound was matched to its structure with a doubt left.

Assay: Physical stability of forms on exposure to humidity, temperature or vacuum, by XRPD
Type: physicochemical
Text: X-ray powder diffraction patterns were collected with a PANalytical X'Pert PRO MPD or PANalytical Empyrean diffractometer using an incident beam of Cu radiation produced using a long, fine-focus source. An elliptically graded multilayer mirror was used to focus Cu Kα x-rays through the specimen and onto the detector. […] A specimen of the sample was sandwiched between 3-μm-thick films and analyzed in transmission geometry. A beam-stop, short anti-scatter extension, and anti-scatter knife edge were used to minimize the background generated by air. Soller slits for the incident and diffracted beams were used to minimize broadening and asymmetry from axial divergence. Diffraction patterns were collected using a scanning position-sensitive detector (X'Celerator) located 240 mm from the specimen and Data Collector software v. 2.2b or 5.5. All images were produced with the instrument labeled as X'Pert PRO MPD regardless of the instrument used.
X-ray powder diffraction patterns were collected with a PANalytical X'Pert PRO MPD diffractometer using an incident beam of Cu Kα radiation produced using a long, fine-focus source and a nickel filter. The diffractometer was configured using the symmetric Bragg—Brentano geometry. […] A specimen of the sample was packed in a well. Anti-scatter slits were used to minimize the background generated by air. […]

C[C@H](CCCC(C)(C)O)[C@H]1CC[C@H]2[C@@H]3CC=C4C[C@@H](OS(=O)(=O)[O-])CC[C@]4(C)[C@H]3CC[C@]12C.[Na+] [Form I, 25HC3S sodium]
relative humidity of exposure at which the form converts to Form V: ≥ 75 % RH
